## Results of single-concentration screens

Measurements from “University of Dundee, Small-Polar-MMV Screening Library” (2021), ChEMBL document CHEMBL3988442.

Mtb cholesterol medium: 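Growth of Mycobacterium tuberculosis over 4 days (cholesterol / DPPC medium with tyloxapol); the read-out is not stated. Concentration: 50 µM. Higher reads as more growth inhibition (inferred: compounds with an IC50 in retests scored well above the rest). About 69,000 compounds were tested under these conditions; 0.54% (about 370) showed 50% or more at least once.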
Mtb glucose medium: 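Whole-cell growth test on Mycobacterium tuberculosis, read after 3 days in glucose-containing 7H9 medium; the read-out is not stated. Tested at 50 µM. Higher reads as more growth inhibition (inferred: compounds with an IC50 in retests scored well above the rest). Of about 69,000 compounds tested this way, about 760 (1.1%) reached 50% or more in at least one test.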

Each number is a percent effect as filed. The record does not define 0% and 100%; most values in the screen are far below 50% and negative numbers occur (in some assays of this library far below -100). The compounds are a random part of those screened. Two or more numbers in one place are separate tests of the same structure; such repeats can differ widely.

COc1cc(CNCc2c(C)nn(C)c2N(C)C)ccc1C gave Mtb cholesterol medium: 8.845%; Mtb glucose medium: 23.06%. Cc1nc(C)c(CC(=O)Nc2nnc(C3CC3)s2)c(=O)[nH]1 read Mtb cholesterol medium: -11.22%; Mtb glucose medium: 0.2713%. For CCOc1cncc(N2CCCC2c2nnc3n2CCCCC3)n1 (stereo unspecified) the result was Mtb cholesterol medium: 14.54%; Mtb glucose medium: 11.52%. CCN(CC)c1ccc(CNC(=O)c2cnccn2)cn1 read Mtb cholesterol medium: -50.32%; Mtb glucose medium: -49.52%. Cc1nc(NS(=O)(=O)c2cc(C)c(Br)cc2C)no1 gave Mtb cholesterol medium: 2.202%; Mtb glucose medium: -0.2524% and 9.984%. For Cc1cccc(CN2C[C@@H](CN3CCCN(C)CC3)[C@@H](CO)C2)n1 the result was Mtb cholesterol medium: -26.94%; Mtb glucose medium: -21.23%. With CC(Cn1cccn1)NC(=O)CCc1nc(C(C)(C)C)no1 (stereo unspecified) the screen gave Mtb cholesterol medium: -8.506%; Mtb glucose medium: -6.39%. CC(C)C(=O)N1CCCC1c1nc(N(C)C)ncc1-c1ccc(Cl)cc1 (stereo unspecified) gave Mtb cholesterol medium: 3.038%; Mtb glucose medium: -13.13%.

With Cc1cccc(N2CCC(NC(=O)CCCc3cccs3)CC2)n1 the screen gave Mtb cholesterol medium: -1.396%; Mtb glucose medium: -6.107% and -3.477%. Cc1ncc(-c2ccnc(NCCO)n2)c(C2CCCCC2)n1 gave Mtb cholesterol medium: -16.51%; Mtb glucose medium: -21.08%. Cc1cncc(C(=O)N2CCC(Cn3cc(-c4ccsc4)nn3)CC2)c1 gave Mtb cholesterol medium: 15.12%; Mtb glucose medium: -22.16%. Result for COCCC(=O)N1CCCC2(CCC(=O)N2CCOC)CC1 (stereo unspecified) was Mtb cholesterol medium: 7.828%; Mtb glucose medium: -1.315%. With Clc1ccc2oc(C3CCN(Cc4cccnc4)CC3)nc2c1 the screen gave Mtb cholesterol medium: 11.3%; Mtb glucose medium: 19.64%. For Cc1nccn1CCC1CCCCN1Cc1ccc(N(C)C)nc1 (stereo unspecified) the result was Mtb cholesterol medium: -11.12%; Mtb glucose medium: -6.41%. With CCc1nc(CN2CCN(C(=O)N3CCCCC3)CC2)cs1 the screen gave Mtb cholesterol medium: -9.813%; Mtb glucose medium: -13.75%. Result for CCN1CCN(C(C)CNC(=O)Nc2cnn(CC)c2)CC1 (stereo unspecified) was Mtb cholesterol medium: -5.564%; Mtb glucose medium: -10.48%.

For Cc1cccc(N(CCC(N)=O)CC(=O)NC2CCCC2)c1 the result was Mtb cholesterol medium: -12.82%; Mtb glucose medium: -10.03%. With CCNC(=O)C1CCN(c2cc(-c3ccccc3F)nc3ccnn23)C1 (stereo unspecified) the screen gave Mtb cholesterol medium: -8.791%; Mtb glucose medium: -13.18%. With COc1ccc(NC(=O)N2CCCC2c2ccco2)c(OC)c1 (stereo unspecified) the screen gave Mtb cholesterol medium: -10.14%; Mtb glucose medium: 4.549%. Result for COc1ccccc1C(C)N(C)Cc1nc2c(cnn2C)c(=O)[nH]1 (stereo unspecified) was Mtb cholesterol medium: 5.086%; Mtb glucose medium: -3.197%. Result for CCC(Nc1cccc(Oc2ccc(C#N)cc2)c1)C(N)=O (stereo unspecified) was Mtb cholesterol medium: 2.329%; Mtb glucose medium: 9.675%. Result for Cc1nc2ccccc2nc1NCc1cccc(OCC2CCCO2)c1 (stereo unspecified) was Mtb cholesterol medium: -9.164%; Mtb glucose medium: 19.3%. Result for Cc1ccccc1-c1cc(C(=O)N2CCn3c(C)nnc3C2)[nH]n1 was Mtb cholesterol medium: 10.14%; Mtb glucose medium: 20.44%. Result for Cc1ccc(N2CCC3(CCN(C(=O)c4ccsc4)C3)CC2)nn1.O=C(O)C(F)(F)F was Mtb cholesterol medium: 3.896%; Mtb glucose medium: -0.663%.

CN1CCN(C(=O)c2ccccc2)CC(Cc2cc(N(C)C)ncn2)C1 (stereo unspecified) gave Mtb cholesterol medium: -0.2614%; Mtb glucose medium: 7.146%. O=C(N[C@@H]1CCNC[C@H]1O)c1ccc(F)c(Cl)c1 gave Mtb cholesterol medium: 22.14%; Mtb glucose medium: 0.8551%. For COc1ccc(C(=O)Nc2ccccc2-c2ccc(=O)n(C)n2)cc1 the result was Mtb cholesterol medium: 3.978%; Mtb glucose medium: 32.76% and 2.619%. Fc1cnc(N2CCC3(COCc4cnc(NCC5CC5)nc43)C2)nc1 (stereo unspecified) read Mtb cholesterol medium: -9.919%; Mtb glucose medium: 6.394%. CCC(C)N(Cc1cnc(OC)nc1)Cc1ccsc1 (stereo unspecified) gave Mtb cholesterol medium: 22.81%; Mtb glucose medium: -16.37%. CCc1oc(C(=O)N[C@@H]2c3ccccc3C[C@@H]2O)cc1CN1CCCC1 gave Mtb cholesterol medium: 7.525%; Mtb glucose medium: 30.96%. With C[C@@H]1CN(C(=O)c2cccc(F)c2)C[C@]12CCN(c1ccsc1)C2=O the screen gave Mtb cholesterol medium: 14.25% and 9.631%; Mtb glucose medium: -17.93%. O=C(O)C(F)(F)F.[H][C@@]12CCN(Cc3ccccc3)C[C@]1(C(=O)N1CCCO1)CCO2 gave Mtb cholesterol medium: -4.76%; Mtb glucose medium: -6.053%.

With CN1C(=O)CC(c2cnn(C)c2)C12CCN(C(=O)c1ccc[nH]1)CC2 (stereo unspecified) the screen gave Mtb cholesterol medium: 3.389%; Mtb glucose medium: -21.85% and -9.075%. With COc1ccc(CNC(=O)c2nc3c(s2)CCN(C(C)=O)CC3)cc1 the screen gave Mtb cholesterol medium: 24.55% and 2.118%; Mtb glucose medium: 11.17%. With O=C(O)c1csc(S(=O)(=O)Nc2c(F)cccc2-n2cccn2)c1 the screen gave Mtb cholesterol medium: 4.019% and -8.127%; Mtb glucose medium: 21.66%.